In the supplement of paper PMC10849652 one finds log2 fold change data, which are given here for twelve molecules.

Protein sequences, listed by entry. Tags and fused reporters are not part of them. Lines headed by an entry give the natural chain unless they say otherwise; changes in a name come on top.
UniProt A6NFI3: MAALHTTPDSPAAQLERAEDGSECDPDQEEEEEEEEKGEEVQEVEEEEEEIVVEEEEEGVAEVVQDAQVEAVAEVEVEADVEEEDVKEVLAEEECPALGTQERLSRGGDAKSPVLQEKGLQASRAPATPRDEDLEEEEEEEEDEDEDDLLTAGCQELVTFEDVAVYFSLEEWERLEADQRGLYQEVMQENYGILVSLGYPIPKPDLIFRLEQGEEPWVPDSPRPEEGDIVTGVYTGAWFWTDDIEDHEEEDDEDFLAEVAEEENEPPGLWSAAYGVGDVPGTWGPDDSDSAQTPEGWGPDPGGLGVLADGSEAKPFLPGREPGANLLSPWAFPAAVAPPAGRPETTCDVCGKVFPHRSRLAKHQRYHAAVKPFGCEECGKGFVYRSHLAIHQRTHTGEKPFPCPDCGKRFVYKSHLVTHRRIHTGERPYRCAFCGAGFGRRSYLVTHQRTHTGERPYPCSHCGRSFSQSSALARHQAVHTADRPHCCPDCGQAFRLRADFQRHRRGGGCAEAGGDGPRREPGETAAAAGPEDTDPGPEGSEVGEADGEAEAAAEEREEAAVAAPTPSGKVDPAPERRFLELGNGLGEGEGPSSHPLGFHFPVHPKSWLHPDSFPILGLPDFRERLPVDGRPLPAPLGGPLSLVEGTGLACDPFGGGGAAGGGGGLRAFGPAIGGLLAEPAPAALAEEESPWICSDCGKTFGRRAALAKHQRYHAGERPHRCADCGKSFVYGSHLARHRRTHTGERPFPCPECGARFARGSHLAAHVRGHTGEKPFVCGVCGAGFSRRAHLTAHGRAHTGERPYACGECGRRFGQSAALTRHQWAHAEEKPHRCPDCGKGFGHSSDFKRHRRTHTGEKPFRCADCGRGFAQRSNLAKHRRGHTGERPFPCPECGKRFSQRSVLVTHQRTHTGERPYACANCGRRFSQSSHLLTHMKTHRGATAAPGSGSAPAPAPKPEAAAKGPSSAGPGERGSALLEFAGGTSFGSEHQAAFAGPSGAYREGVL

Each structure is given as a SMILES string. The list shows a part of the results.

This experiment concerns the target ZNF316 (UniProt A6NFI3). Nature of the experiment: log2 fold change, soluble protein after heating vs DMSO (PISA); higher = thermal stabilisation; K562 cells, 10 uM, 30 min; active = over 0.2 and 3.5 SD of the protein, either way, in both replicates (recomputed). An outline of the steps: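 Soluble protein was quantified by TMTpro 16plex LC-MS/MS after channel sums were equalised. It was obtained as the supernatant after 21,000xg for 90 min from pooled aliquots of K562 cells (2×10^6 cells/mL, 10 μM compound, 30 min) heated for 3 min across 48°C-58°C and extracted in PBS with 0.5% NP-40 at 4°C. Thermal stability values are relative to control samples and come from duplicates. They are given as log2 fold changes.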
As to `NC(=O)c1cnc(N[C@@H]2CCCC[C@@H]2N)nc1Nc1cccc(-n2nccn2)c1`, the log2 fold change is inactive: 0.042. Under `C/C(=N\NC(=O)c1cccc(S(=O)(=O)N2CCOCC2)c1)c1cc(Cl)ccc1O` stands inactive: 0.042; under `COC(=O)N[C@@H](C)CNc1nccc(-c2cn(C(C)C)nc2-c2cc(Cl)cc(NS(C)(=O)=O)c2F)n1` [encorafenib], inactive: 0.159; under `Cn1cc(-c2ccc3nnc(C(F)(F)c4ccc5ncccc5c4)n3n2)cn1`, inactive: -0.041.

For `Cc1ccc(C(=O)N(CCCN)[C@@H](c2nc3cc(Cl)ccc3c(=O)n2Cc2ccccc2)C(C)C)cc1` [ispinesib], the log2 fold change was inactive: -0.145.

`CNCc1ccc(-c2[nH]c3cc(F)cc4c3c2CCNC4=O)cc1` [rucaparib]: the log2 fold change was inactive: -0.166. With `c1cc(OCCN2CCCCC2)cc(-c2n[nH]c3ccc(-c4nnc[nH]4)cc23)c1` the figure was inactive: 0.036; with `O=C(CCCCCCNC(=O)c1cnc(N(c2ccccc2)c2ccccc2Cl)nc1)NO` [citarinostat], inactive: 0.281; with `CCCc1cc(C)[nH]c(=O)c1CNC(=O)c1cc(-c2ccnc(N3CCN(C)CC3)c2)cc2c1cnn2C(C)C`, inactive: 0.192. With `C[C@@H](N)c1ccc(C(=O)Nc2ccnc3[nH]ccc23)cc1` the figure was inactive: 0.081; with `O=C1NC(=NCc2cccs2)S/C1=C\c1ccc2ncccc2c1`, inactive: 0.108. Under `FC(F)(F)c1ccc(/C=C/c2nc(COc3ccc(CCCCn4ccnn4)cc3)co2)cc1` [mubritinib] stands inactive: -0.223.
